Data as given in article PMC5372545.
Results are given in words; binding and its absence hold for the method and conditions named. In cells and extracts the contact can be indirect. Some entries that bind do so weakly or less than the wild type. Tags and fused reporters may be left off the sequences shown.

Sequences of proteins named here, by UniProt entry; tags and fusion partners are left off.
UniProt P21333: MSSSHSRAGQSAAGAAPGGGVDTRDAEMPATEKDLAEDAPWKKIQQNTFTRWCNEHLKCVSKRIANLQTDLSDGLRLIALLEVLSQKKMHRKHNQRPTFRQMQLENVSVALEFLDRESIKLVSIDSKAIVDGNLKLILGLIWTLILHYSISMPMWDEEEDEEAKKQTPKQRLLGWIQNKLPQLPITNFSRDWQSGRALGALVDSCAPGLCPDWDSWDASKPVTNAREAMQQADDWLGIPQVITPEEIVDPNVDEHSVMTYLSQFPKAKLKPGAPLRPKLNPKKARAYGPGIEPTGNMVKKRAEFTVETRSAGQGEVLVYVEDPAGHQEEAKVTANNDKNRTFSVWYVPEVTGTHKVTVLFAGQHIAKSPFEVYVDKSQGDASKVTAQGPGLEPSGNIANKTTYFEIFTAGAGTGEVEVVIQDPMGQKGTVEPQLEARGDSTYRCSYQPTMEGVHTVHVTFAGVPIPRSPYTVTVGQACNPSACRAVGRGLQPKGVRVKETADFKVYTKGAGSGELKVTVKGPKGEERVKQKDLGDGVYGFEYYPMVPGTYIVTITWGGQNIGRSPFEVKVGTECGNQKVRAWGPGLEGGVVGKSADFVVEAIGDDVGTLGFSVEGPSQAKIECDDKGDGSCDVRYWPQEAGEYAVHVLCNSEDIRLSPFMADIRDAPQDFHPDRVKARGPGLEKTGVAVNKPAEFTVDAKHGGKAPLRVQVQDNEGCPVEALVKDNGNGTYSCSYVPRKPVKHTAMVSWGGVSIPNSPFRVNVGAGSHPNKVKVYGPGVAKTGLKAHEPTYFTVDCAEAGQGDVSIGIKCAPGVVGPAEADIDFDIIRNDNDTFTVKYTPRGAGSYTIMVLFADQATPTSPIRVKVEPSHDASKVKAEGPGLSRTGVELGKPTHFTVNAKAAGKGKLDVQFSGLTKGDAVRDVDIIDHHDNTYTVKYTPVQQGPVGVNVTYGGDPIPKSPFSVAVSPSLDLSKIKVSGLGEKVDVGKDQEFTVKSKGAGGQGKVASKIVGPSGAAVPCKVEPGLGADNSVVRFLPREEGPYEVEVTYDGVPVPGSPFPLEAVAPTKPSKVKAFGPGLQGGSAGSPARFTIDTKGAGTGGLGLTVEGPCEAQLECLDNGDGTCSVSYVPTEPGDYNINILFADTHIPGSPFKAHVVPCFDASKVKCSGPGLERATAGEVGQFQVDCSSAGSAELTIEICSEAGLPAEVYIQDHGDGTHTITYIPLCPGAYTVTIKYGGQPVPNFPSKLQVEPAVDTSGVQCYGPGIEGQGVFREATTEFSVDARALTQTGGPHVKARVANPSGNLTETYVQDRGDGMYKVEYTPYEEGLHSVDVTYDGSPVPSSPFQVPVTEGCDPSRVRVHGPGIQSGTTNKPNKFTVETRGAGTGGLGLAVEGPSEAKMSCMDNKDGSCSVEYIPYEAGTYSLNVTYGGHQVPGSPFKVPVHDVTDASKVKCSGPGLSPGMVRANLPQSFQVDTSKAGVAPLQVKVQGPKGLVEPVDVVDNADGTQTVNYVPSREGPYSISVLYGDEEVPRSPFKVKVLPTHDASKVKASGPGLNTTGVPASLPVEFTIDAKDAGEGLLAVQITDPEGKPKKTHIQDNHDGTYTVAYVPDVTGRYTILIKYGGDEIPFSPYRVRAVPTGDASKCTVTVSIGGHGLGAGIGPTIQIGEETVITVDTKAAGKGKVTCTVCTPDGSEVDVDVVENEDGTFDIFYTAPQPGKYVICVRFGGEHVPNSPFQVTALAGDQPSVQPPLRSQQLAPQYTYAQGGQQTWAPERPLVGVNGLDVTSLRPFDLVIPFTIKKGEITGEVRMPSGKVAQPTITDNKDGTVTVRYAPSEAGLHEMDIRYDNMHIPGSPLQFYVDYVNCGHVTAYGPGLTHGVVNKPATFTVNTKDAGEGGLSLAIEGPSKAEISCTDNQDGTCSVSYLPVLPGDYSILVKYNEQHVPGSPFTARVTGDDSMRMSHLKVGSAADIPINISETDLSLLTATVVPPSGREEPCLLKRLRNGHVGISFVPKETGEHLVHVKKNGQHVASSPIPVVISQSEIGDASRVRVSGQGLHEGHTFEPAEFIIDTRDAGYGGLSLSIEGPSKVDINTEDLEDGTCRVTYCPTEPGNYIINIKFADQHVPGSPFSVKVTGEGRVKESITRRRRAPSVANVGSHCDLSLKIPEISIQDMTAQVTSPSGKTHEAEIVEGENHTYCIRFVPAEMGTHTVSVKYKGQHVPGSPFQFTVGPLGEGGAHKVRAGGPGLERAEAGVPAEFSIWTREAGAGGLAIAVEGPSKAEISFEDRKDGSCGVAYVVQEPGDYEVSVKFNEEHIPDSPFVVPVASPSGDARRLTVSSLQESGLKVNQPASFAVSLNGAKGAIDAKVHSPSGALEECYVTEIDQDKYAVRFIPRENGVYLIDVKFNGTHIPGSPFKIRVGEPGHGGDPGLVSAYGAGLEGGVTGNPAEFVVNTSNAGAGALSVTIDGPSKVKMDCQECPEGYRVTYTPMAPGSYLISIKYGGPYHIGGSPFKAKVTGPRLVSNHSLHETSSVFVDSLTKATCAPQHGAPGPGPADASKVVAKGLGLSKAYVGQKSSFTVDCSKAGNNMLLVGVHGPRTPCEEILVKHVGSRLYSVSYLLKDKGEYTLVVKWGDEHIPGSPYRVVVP

Biological target: T1, Flag-RNase L (UniProt Q05823)
T1 sequence: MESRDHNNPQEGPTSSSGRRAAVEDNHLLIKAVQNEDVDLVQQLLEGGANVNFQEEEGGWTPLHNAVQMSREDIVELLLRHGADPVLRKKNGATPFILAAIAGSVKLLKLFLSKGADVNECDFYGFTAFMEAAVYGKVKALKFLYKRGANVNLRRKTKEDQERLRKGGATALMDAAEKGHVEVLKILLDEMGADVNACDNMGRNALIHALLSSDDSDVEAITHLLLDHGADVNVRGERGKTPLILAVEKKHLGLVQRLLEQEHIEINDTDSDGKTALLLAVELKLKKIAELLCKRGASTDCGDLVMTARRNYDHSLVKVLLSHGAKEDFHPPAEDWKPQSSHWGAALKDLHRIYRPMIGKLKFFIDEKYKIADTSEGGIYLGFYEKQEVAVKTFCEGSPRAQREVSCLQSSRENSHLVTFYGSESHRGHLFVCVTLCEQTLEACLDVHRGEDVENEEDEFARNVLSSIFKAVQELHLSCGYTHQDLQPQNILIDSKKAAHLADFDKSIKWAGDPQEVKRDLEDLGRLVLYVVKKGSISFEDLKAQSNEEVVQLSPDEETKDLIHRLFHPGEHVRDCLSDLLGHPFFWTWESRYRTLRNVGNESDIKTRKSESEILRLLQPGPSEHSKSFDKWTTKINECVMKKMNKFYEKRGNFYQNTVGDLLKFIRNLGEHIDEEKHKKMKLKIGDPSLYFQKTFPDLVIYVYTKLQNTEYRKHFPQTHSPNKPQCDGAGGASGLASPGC
Experiment: co-IP; LNCaP cells expressing Flag-RNase L, untreated (vehicle); lysis in 0.5% NP-40, 90 mM KCl, 5 mM magnesium acetate, 20 mM Tris pH 7.5; Flag-M2 agarose beads or control IgG beads, 4 °C; Western blot for AR and FLNA; cells treated with R1881 (1 nM, 1 h or 24 h) showed reduced FLNA

binding: binds
Substance: Filamin A (from UniProt P21333 1-2647)
